From PubChem BioAssay AID248 (DTP/NCI, 2004)
The list does not hold the whole screen: it is rich in T/C values a quarter to a half above the control, in often repeated tests (any T/C) and in doses without a T/C. Other doses and runs of a compound stand elsewhere. T/C is the treated group as % of the vehicle group. Some doses have a count of surviving animals in place of a T/C: the source files T/C as zero there, which appears to mark a toxic dose or a test without result, not a measured value. Some doses without a T/C left all or most animals alive at the check, yet need not have been tolerated: survival well below the control is almost never listed, so the zero probably covers shortened survival too. Survivors were counted at the toxicity check, usually on the fifth day, unless a day is given; later deaths do not show. Schedules are NCI's codes, read here as Q, the interval in days (D) or hours (H), X, the number of doses. Some schedule codes hold Z or #, which are not explained here. For survival time, the PubChem record calls one and a half times the control and up active, and a quarter to a half above the control has no call in these data; cut-offs in other NCI protocols can differ. Some entries were tested several times; the values are given in rising order.

Test system: L1210 leukemia ip in BDF1 mice, survival T/C
Assay: NCI In Vivo Anticancer Drug Screen. Data for tumor model L1210 Leukemia (intraperitoneal) in B6D2F1 (BDF1) mice
Details: T/C endpoint: mean survival time, higher T/C = longer survival
[1] = dose: 400.0 mg/kg/injection, schedule: Q01DX009 (ip), vehicle: saline with Tween-80
[2] = dose: 100.0 mg/kg/injection, schedule: Q04DX003 (ip), vehicle: saline
[3] = dose: 200.0 mg/kg/injection, schedule: Q04DX003 (ip), vehicle: saline
[4] = dose: 400.0 mg/kg/injection, schedule: Q04DX003 (ip), vehicle: saline

C/C(=N/NC(N)=S)c1ccc(F)cc1
survivor count (dose: 37.5 mg/kg/injection, schedule: Q01DX009 (ip), vehicle: Klucel (hydroxypropylcellulose) (HPC)): 0 of 6 | survivor count (dose: 75.0 mg/kg/injection, schedule: Q01DX009 (ip), vehicle: Klucel (hydroxypropylcellulose) (HPC)): 0 of 6 | survivor count (dose: 150.0 mg/kg/injection, schedule: Q01DX009 (ip), vehicle: Klucel (hydroxypropylcellulose) (HPC)): 0 of 6 | survivor count (dose: 300.0 mg/kg/injection, schedule: Q01DX009 (ip), vehicle: Klucel (hydroxypropylcellulose) (HPC)): 0 of 6

CCC(COC(=O)c1ccc(N)cc1)NC(CC(C)C)CC(C)C (stereo unspecified)
survivor count (dose: 150.0 mg/kg/injection, schedule: Q01DX001 (ip), vehicle: carboxymethylcellulose (CMC)): 5 of 6

Cc1c2ccccc2c(CCl)c2ccc3ccccc3c12
survivor count (dose: 50.0 mg/kg/injection, schedule: Q01DX009 (ip), vehicle: carboxymethylcellulose (CMC)): 3 of 6 | survivor count (dose: 75.0 mg/kg/injection, schedule: Q01DX009 (ip), vehicle: carboxymethylcellulose (CMC)): 1 of 6 | survivor count (dose: 200.0 mg/kg/injection, schedule: Q01DX009 (ip), vehicle: carboxymethylcellulose (CMC)): 0 of 6

CCOC(=O)C(CC)C1=CCCCC1 (stereo unspecified)
survivor count [1]: 6 of 6

C=CCN(CC=C)P(=O)(N1CC1C)N1CC1C (stereo unspecified)
T/C (dose: 1.8 mg/kg/injection, schedule: Q01DX009 (ip), vehicle: saline): 143 % of control | T/C (dose: 5.0 mg/kg/injection, schedule: Q01DX009 (ip), vehicle: saline): 127 % of control

O=[N+]([O-])c1cccc(N(CCF)CCF)c1
survivor count (dose: 40.0 mg/kg/injection, schedule: Q01DX001 (ip), vehicle: carboxymethylcellulose (CMC)): 1 of 4 | survivor count (dose: 50.0 mg/kg/injection, schedule: Q01DX001 (ip), vehicle: carboxymethylcellulose (CMC)): 0 of 4 | survivor count (dose: 80.0 mg/kg/injection, schedule: Q01DX001 (ip), vehicle: carboxymethylcellulose (CMC)): 0 of 4 | survivor count (dose: 100.0 mg/kg/injection, schedule: Q01DX001 (ip), vehicle: carboxymethylcellulose (CMC)): 0 of 4 | survivor count (dose: 200.0 mg/kg/injection, schedule: Q01DX001 (ip), vehicle: carboxymethylcellulose (CMC)): 0 of 4 | survivor count (dose: 400.0 mg/kg/injection, schedule: Q01DX001 (ip), vehicle: carboxymethylcellulose (CMC)): 0 of 4

NC(N)=N/N=C/C=C/c1ccco1
survivor count (dose: 60.0 mg/kg/injection, schedule: Q01DX Z (oral), vehicle: methylcellulose (MC)): 3 of 6 | survivor count (dose: 120.0 mg/kg/injection, schedule: Q01DX Z (oral), vehicle: methylcellulose (MC)): 3 of 6 | survivor count (dose: 240.0 mg/kg/injection, schedule: Q01DX Z (oral), vehicle: methylcellulose (MC)): 0 of 6 | survivor count (dose: 480.0 mg/kg/injection, schedule: Q01DX Z (oral), vehicle: methylcellulose (MC)): 0 of 6

CC(C)(C)C#C[P+](C#CC(C)(C)C)(Cc1ccccc1)c1ccccc1
survivor count (dose: 50.0 mg/kg/injection, schedule: Q01DX009 (ip), vehicle: saline): 4 of 6 | survivor count [2]: 0 of 6 | survivor count [3]: 0 of 6 | survivor count [4]: 0 of 6

CCN(CC)CC(O)c1ccccc1 (stereo unspecified)
survivor count (dose: 100.0 mg/kg/injection, schedule: Q01DX009 (ip), vehicle: saline): 1 of 6 | survivor count [2]: 2 of 6 | survivor count [3]: 2 of 6 | survivor count [4]: 0 of 6

O=C1C(N2CCOCC2)=C(N2CC2)C(=O)C(N2CCOCC2)=C1N1CC1
T/C (dose: 1.5 mg/kg/injection, schedule: Q01DX009 (ip), vehicle: saline): 132 % of control | T/C (dose: 3.0 mg/kg/injection, schedule: Q01DX009 (ip), vehicle: saline): 125 and 135 % of control | T/C (dose: 3.0 mg/kg/injection, schedule: Q04DX003 (ip), vehicle: saline): 136 % of control | T/C (dose: 6.0 mg/kg/injection, schedule: Q04DX003 (ip), vehicle: saline): 144 and 149 % of control | survivor count (dose: 6.25 mg/kg/injection, schedule: Q01DX001 (ip), vehicle: saline): 5 of 6 | survivor count (dose: 12.0 mg/kg/injection, schedule: Q04DX003 (ip), vehicle: saline): 5 of 6 | survivor count (dose: 12.5 mg/kg/injection, schedule: Q01DX001 (ip), vehicle: saline): 5 of 6 | survivor count (dose: 25.0 mg/kg/injection, schedule: Q01DX001 (ip), vehicle: saline): 6 of 6

C=CCN1CCC(C(=O)OC)(c2ccccc2)CC1
survivor count [4]: 0 of 6

Cc1ccc(S(=O)(=O)N(CCCc2c(N)nc(N)nc2-c2ccccc2)c2ccccc2)cc1
survivor count [4]: 0 of 6

CC(Br)C(=O)NCC(=O)O (stereo unspecified)
survivor count [1]: 1 of 6

CC(C)SCC(N)CO (stereo unspecified)
survivor count (dose: 400.0 mg/kg/injection, schedule: Q01DX009 (ip), vehicle: water): 3 of 6

N=c1ncn(C2OC(COP(=O)(O)O)C(O)C2O)c2nc[nH]c12 (stereo unspecified)
T/C (dose: 3.13 mg/kg/injection, schedule: Q01DX005 (ip), vehicle: water): 129 % of control

N#Cc1ccc(C(CCCCC(Cc2ccccc2)c2ccc(C#N)cc2)Cc2ccccc2)cc1 (stereo unspecified)
survivor count (dose: 100.0 mg/kg/injection, schedule: Q01DX001 (ip), vehicle: saline): 2 of 4

CCc1ccccc1NC(=O)Sc1ccccc1C
survivor count (dose: 400.0 mg/kg/injection, schedule: Q01DX009 (ip), vehicle: Klucel (hydroxypropylcellulose) (HPC)): 0 of 6

c1cncc(C2SCCCS2)c1
survivor count (dose: 400.0 mg/kg/injection, schedule: Q04DX002 (ip), vehicle: DMSO): 3 of 3

CCOC(OCC)C(=O)C(C#N)c1ccc(C#N)cc1 (stereo unspecified)
survivor count (dose: 25.0 mg/kg/injection, schedule: Q01DX009 (ip), vehicle: DMSO): 5 of 6 | survivor count (dose: 50.0 mg/kg/injection, schedule: Q01DX009 (ip), vehicle: DMSO): 0 of 6 | survivor count (dose: 100.0 mg/kg/injection, schedule: Q01DX009 (ip), vehicle: DMSO): 0 of 6 | survivor count (dose: 200.0 mg/kg/injection, schedule: Q01DX009 (ip), vehicle: DMSO): 0 of 6 | survivor count (dose: 400.0 mg/kg/injection, schedule: Q01DX009 (ip), vehicle: DMSO): 0 of 6

CCOC(=O)c1ccccc1N=Nc1cc(OC)c(N)cc1OC
survivor count (dose: 40.0 mg/kg/injection, schedule: Q01DX001 (ip), vehicle: other): 1 of 4 | survivor count (dose: 80.0 mg/kg/injection, schedule: Q01DX001 (ip), vehicle: other): 0 of 4 | survivor count (dose: 100.0 mg/kg/injection, schedule: Q01DX001 (ip), vehicle: other): 0 of 4 | survivor count (dose: 200.0 mg/kg/injection, schedule: Q01DX001 (ip), vehicle: other): 0 of 4 | survivor count (dose: 400.0 mg/kg/injection, schedule: Q01DX001 (ip), vehicle: other): 0 of 4

COc1ccc(/C=N/N=C(N)N)cc1
survivor count (dose: 120.0 mg/kg/injection, schedule: Q01DX Z (ip), vehicle: saline): 0 of 6 | survivor count (dose: 240.0 mg/kg/injection, schedule: Q01DX Z (oral), vehicle: other): 0 of 6

NC(CSS(=O)(=O)O)=NCCC1=NCCN1
T/C (dose: 100.0 mg/kg/injection, schedule: Q04DX002 (ip), vehicle: saline): 129 % of control

O=C(O)c1nc2nc(Cl)c(Cl)nc2[nH]1
survivor count [4]: 2 of 6

CC(=O)NC/C(C)=N/Nc1ccc([N+](=O)[O-])cc1[N+](=O)[O-]
survivor count (dose: 200.0 mg/kg/injection, schedule: Q04DX003 (ip), vehicle: saline with Tween-80): 2 of 6 | survivor count (dose: 400.0 mg/kg/injection, schedule: Q04DX003 (ip), vehicle: saline with Tween-80): 0 of 6

COc1ccc(C(OCC2OC(n3nnc4c(=O)[nH]c(N)nc43)CC2OC(C)=O)(c2ccccc2)c2ccc(OC)cc2)cc1 (stereo unspecified)
survivor count (dose: 100.0 mg/kg/injection, schedule: Q01DX001 (ip), vehicle: Klucel (hydroxypropylcellulose) (HPC)): 0 of 6 | survivor count (dose: 200.0 mg/kg/injection, schedule: Q01DX001 (ip), vehicle: Klucel (hydroxypropylcellulose) (HPC)): 0 of 6

COc1nc(N)c([N+](=O)[O-])c(OC)n1
survivor count (dose: 125.0 mg/kg/injection, schedule: Q01DX Z (ip), vehicle: methylcellulose (MC)): 3 of 6

Cc1ccc(S(=O)(=O)[O][Sn-]([CH2]c2ccccc2)([CH2]c2ccccc2)[CH2]c2ccccc2)cc1
survivor count (dose: 200.0 mg/kg/injection, schedule: Q01DX009 (ip), vehicle: olive oil, sesame oil, peanut oil): 0 of 3 | survivor count (dose: 400.0 mg/kg/injection, schedule: Q04DX002 (ip), vehicle: alcohol): 3 of 3
